Values from PubChem BioAssay AID1053208 (Peter MacCallum Cancer Centre, 2014)

- Aim: 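Find knock-downs that sensitise mouse osteosarcoma cells to doxorubicin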 (primary screen)
- System: mouse osteosarcoma cells, early-passage culture from an engineered mouse model of fibroblastic bone tumour
- Knock-down reagent: siRNA pool against mouse genes, 40 nM
- Duration: about 120 h (48 h before drug, then 72 h with drug)
- Conditions: doxorubicin 100 nM for 72 h, roughly 30-40% inhibitory dose
- Read-out: 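Viability read as ATP luminescence after 72 h of 100 nM doxorubicin or none, duplicate wells averaged, scaled to non-targeting siRNA, then expressed as robust z-scores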
- Direction: viability z-score with doxorubicin: higher = more viable cells under doxorubicin; viability z-score without drug: higher = more viable cells with knock-down alone
- Hit rule: 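Called active if knock-down leaves viability unchanged without drug (z within -2 to 2) but lowers it with doxorubicin (z at or under -2)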
This is one part, drawn at random, of about 17,000 reagents tested. 788 of all reagents (4.7%) were called active. 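Calls rest on z-score classes alone; an extra cut-off of viability at most 70% of control was not applied to them.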 Further read-outs or replicates are left out here.

gene symbol	combined z-score class	viability z-score with doxorubicin	viability z-score without drug	activity call
Pxdc1 (GeneID 66895)	no change with or without drug	1.57	1.35	inactive
Ctc1 (GeneID 68964)	no change with or without drug	0.79	-0.51	inactive
Cttn (GeneID 13043)	no change with or without drug	0.22	-1.18	inactive
Rrp36 (GeneID 224823)	low cell count without drug only	-1.57	-2.19	inactive
Frmd6 (GeneID 319710)	no change with or without drug	0.34	0.17	inactive
Taar1 (GeneID 111174)	no change with or without drug	-0.56	-1.01	inactive
Zfp300 (GeneID 245368)	no change with or without drug	-0.67	-1.01	inactive
9330169L03Rik (GeneID 77226)	no change with or without drug	-1.57	-1.69	inactive
Hirip3 (GeneID 233876)	no change with or without drug	-0.67	-0.84	inactive
Tinag (GeneID 26944)	no change with or without drug	1.57	0.17	inactive
Dsg1c (GeneID 211924)	no change with or without drug	0.11	1.01	inactive
Slc41a2 (GeneID 338365)	no change with or without drug	0.22	-0.84	inactive
Iqcb1 (GeneID 320299)	no change with or without drug	-0.9	-0.17	inactive
Rhobtb1 (GeneID 69288)	no change with or without drug	-1.35	1.01	inactive
Nat8f3 (GeneID 93674)	no change with or without drug	-1.69	-0.34	inactive
Stau2 (GeneID 29819)	no change with or without drug	-1.12	1.18	inactive
Srsf1 (GeneID 110809)	low cell count with doxorubicin only	-2.02	-0.51	active
Ssrp1 (GeneID 20833)	no change with or without drug	0.9	0.67	inactive
Exosc5 (GeneID 27998)	no change with or without drug	0.45	0.34	inactive
Cyba (GeneID 13057)	no change with or without drug	0.67	-0.51	inactive

Copied from above, 3 entries:
gene symbol	combined z-score class	viability z-score with doxorubicin	viability z-score without drug	activity call
Iqcb1 (GeneID 320299)	no change with or without drug	-0.9	-0.17	inactive
Rhobtb1 (GeneID 69288)	no change with or without drug	-1.35	1.01	inactive
Nat8f3 (GeneID 93674)	no change with or without drug	-1.69	-0.34	inactive
